Test results published in patent US12091425B2 (AMGEN INC., priority 2016, dated 2024).

The chains behind the UniProt entries cited, without tags or fusion partners. Residues count along the entry.
UniProt Q07820, 171-327 limits assumed: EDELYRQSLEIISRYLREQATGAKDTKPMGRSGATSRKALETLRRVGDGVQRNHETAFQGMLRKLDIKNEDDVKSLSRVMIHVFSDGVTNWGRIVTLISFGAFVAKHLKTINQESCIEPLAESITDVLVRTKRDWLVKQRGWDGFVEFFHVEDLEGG

Molecular target: Mcl-1/Bim interaction, recombinant human Mcl-1 (171-327) (Homo sapiens, UniProt Q07820)
Assay: Cell free Mcl-1: Bim Affinity Assay (Mcl-1 HTRF)
Assay type: binding
Conditions: read-out: Mcl-1 HTRF, cell free Mcl-1:Bim TR-FRET

IC50: 0.632 nM and 3.49 nM
Structure (SMILES): CC(C)C1CCCC[C@@H](O)[C@@H]2CC[C@H]2CN2C[C@@]3(CCCc4cc(Cl)ccc43)COc3ccc(cc32)C(=O)NS1(=O)=O (single isomer, unassigned)

Some entries of the source have several records that differ or are many. This is not the full list of results. An entry can have further records. Values that stand side by side seem to repeat one measurement (runs, samples, wells or individuals).
